Measured values taken from the supplement of paper PMC10849652.
The list shows a part of the results.

The chains behind the UniProt entries cited, without tags or fusion partners. Where a name states a change or a piece, a line headed by the entry shows the natural chain unless it says otherwise.
UniProt Q7RTR2: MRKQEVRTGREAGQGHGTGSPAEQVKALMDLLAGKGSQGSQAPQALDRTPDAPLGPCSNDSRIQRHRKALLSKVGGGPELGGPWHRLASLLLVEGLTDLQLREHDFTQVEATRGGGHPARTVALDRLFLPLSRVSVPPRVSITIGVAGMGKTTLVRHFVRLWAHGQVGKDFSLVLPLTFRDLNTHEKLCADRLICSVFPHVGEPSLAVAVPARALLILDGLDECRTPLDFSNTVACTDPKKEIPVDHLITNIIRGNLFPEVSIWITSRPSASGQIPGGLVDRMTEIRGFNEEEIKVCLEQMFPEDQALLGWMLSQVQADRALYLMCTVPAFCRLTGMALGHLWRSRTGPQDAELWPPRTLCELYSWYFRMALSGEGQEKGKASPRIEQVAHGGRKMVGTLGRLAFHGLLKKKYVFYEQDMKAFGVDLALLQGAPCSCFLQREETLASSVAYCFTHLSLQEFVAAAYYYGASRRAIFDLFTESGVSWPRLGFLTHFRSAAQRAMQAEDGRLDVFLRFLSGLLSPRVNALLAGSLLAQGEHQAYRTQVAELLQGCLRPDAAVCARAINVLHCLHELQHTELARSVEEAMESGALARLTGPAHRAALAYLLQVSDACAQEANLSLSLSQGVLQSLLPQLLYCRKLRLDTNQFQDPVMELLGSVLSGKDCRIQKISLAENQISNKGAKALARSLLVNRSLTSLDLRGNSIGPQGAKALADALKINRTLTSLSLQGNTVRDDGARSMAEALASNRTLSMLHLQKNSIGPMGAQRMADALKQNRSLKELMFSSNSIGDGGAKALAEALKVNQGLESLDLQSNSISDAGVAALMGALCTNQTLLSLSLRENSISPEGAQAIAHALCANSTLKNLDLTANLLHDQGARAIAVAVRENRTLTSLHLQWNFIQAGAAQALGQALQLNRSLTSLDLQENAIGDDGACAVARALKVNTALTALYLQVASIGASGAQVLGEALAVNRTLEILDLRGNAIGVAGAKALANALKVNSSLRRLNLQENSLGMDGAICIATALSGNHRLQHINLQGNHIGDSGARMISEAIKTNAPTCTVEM
UniProt Q6P3R8: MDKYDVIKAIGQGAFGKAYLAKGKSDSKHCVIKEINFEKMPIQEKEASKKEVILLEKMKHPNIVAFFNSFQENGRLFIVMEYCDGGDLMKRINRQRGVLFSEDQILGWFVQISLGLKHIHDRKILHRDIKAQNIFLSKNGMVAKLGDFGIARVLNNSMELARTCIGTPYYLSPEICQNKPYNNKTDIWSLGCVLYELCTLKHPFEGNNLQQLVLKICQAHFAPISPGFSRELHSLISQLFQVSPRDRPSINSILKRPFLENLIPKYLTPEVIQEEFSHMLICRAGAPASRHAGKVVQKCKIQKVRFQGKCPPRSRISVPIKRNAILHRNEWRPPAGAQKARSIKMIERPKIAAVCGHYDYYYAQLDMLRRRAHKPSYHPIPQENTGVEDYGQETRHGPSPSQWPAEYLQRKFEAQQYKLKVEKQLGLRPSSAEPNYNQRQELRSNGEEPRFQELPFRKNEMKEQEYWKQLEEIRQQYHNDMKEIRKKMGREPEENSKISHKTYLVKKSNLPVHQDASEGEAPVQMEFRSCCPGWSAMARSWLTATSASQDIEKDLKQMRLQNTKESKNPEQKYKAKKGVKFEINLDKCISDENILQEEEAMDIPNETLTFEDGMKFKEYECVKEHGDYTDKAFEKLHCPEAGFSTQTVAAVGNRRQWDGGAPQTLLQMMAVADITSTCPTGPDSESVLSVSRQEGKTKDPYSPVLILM
UniProt O75438, whole entry, looked up: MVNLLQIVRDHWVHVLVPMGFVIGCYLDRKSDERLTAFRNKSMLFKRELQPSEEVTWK
UniProt Q969S2: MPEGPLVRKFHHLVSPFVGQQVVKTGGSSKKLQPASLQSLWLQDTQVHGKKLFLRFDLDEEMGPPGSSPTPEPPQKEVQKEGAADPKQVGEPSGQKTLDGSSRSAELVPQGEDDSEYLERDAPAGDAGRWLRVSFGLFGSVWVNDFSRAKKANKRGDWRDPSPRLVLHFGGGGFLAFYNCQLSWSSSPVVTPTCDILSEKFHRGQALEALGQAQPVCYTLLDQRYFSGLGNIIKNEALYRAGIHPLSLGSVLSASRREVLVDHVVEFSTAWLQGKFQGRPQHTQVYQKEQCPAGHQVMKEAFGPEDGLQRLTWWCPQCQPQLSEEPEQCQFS
UniProt Q86UT6, whole entry, looked up: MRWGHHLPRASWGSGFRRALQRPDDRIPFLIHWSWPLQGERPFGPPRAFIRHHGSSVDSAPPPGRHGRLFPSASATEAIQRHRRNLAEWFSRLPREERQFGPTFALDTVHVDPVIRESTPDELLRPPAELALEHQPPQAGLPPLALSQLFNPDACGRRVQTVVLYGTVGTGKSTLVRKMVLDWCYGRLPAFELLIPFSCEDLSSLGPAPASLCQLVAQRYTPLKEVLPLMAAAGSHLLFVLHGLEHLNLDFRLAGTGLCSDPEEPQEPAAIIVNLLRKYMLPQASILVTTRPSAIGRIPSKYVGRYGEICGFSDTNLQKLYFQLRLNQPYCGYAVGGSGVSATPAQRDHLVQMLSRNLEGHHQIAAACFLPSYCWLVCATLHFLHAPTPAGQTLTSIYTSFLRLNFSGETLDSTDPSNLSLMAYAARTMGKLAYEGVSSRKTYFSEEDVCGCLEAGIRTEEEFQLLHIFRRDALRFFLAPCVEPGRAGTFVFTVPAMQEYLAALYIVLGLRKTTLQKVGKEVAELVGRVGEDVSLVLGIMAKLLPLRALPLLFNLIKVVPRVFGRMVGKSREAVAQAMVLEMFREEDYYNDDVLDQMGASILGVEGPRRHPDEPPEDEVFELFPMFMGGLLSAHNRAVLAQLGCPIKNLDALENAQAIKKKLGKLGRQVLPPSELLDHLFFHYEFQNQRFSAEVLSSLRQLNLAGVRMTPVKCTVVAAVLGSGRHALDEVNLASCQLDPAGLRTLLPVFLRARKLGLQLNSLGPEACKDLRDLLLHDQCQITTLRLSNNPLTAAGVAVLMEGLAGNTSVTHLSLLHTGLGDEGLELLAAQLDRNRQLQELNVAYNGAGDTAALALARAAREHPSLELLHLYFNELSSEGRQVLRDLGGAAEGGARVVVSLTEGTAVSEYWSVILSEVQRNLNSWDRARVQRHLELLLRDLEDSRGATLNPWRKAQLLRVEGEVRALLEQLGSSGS
UniProt Q16649: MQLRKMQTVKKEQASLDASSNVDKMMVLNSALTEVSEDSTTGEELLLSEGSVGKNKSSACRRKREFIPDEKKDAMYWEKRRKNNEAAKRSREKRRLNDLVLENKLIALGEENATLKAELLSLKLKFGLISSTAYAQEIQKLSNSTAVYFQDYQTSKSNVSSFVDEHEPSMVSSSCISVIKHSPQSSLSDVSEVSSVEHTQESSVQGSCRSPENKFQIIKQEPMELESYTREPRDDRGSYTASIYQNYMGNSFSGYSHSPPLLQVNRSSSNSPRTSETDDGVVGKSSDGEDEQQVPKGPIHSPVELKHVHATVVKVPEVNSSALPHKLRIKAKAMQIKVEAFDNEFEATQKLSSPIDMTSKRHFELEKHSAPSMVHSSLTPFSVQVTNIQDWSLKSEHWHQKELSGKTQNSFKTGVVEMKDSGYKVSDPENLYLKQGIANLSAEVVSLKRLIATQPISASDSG
UniProt P19838: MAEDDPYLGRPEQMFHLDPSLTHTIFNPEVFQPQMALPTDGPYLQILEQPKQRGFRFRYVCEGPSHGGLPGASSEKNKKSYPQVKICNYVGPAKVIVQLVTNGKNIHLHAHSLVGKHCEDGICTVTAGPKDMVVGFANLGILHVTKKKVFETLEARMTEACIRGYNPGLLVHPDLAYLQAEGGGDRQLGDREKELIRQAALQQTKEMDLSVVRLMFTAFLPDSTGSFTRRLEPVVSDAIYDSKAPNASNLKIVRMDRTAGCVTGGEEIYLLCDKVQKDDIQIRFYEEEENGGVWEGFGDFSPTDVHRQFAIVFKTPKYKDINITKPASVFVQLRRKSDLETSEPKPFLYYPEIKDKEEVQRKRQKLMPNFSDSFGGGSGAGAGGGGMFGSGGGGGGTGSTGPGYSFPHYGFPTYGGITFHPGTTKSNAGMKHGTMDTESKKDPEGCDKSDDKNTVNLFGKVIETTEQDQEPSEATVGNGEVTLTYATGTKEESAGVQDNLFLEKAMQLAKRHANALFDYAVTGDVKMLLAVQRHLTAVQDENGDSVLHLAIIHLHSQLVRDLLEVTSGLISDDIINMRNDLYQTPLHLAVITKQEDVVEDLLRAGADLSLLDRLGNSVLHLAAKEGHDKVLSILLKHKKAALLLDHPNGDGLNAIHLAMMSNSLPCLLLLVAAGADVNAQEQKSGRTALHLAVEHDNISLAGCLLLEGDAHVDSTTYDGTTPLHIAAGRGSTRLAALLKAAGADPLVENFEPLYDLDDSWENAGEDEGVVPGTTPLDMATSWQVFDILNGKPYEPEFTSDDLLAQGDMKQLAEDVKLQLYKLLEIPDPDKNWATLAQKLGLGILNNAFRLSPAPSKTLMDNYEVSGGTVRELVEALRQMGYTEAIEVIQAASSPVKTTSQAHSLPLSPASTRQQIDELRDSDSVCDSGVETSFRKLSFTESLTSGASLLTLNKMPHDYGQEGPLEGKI
UniProt Q6ZUT1: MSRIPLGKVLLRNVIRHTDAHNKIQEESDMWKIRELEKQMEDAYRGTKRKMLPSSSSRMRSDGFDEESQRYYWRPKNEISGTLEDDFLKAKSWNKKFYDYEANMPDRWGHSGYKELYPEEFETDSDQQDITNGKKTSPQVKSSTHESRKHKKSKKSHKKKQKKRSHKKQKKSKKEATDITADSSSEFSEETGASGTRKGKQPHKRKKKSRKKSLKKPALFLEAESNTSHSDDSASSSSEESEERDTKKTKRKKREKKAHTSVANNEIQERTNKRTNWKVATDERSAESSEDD
UniProt O43677, whole entry, looked up: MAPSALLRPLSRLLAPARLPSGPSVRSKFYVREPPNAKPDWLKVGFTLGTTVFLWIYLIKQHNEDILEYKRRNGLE
UniProt Q9UBE8: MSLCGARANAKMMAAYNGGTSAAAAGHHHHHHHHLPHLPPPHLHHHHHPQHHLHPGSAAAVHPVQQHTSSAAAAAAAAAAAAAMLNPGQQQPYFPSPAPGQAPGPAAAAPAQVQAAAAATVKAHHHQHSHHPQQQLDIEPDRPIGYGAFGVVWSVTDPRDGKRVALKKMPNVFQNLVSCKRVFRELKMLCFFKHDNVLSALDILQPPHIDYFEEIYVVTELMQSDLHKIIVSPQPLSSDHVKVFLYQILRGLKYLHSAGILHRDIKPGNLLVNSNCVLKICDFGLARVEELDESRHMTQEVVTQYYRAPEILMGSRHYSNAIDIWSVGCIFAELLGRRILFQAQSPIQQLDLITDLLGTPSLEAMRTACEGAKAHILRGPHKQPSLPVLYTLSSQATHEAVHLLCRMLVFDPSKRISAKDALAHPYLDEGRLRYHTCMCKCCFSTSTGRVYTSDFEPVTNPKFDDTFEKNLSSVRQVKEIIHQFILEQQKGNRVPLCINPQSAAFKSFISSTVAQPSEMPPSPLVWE
UniProt Q9BT67: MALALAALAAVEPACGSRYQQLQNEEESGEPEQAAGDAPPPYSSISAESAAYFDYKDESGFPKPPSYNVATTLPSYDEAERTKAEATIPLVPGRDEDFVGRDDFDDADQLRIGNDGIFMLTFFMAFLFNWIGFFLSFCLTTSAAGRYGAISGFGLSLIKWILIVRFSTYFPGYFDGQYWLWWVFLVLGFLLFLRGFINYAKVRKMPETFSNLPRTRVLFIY
UniProt P51957: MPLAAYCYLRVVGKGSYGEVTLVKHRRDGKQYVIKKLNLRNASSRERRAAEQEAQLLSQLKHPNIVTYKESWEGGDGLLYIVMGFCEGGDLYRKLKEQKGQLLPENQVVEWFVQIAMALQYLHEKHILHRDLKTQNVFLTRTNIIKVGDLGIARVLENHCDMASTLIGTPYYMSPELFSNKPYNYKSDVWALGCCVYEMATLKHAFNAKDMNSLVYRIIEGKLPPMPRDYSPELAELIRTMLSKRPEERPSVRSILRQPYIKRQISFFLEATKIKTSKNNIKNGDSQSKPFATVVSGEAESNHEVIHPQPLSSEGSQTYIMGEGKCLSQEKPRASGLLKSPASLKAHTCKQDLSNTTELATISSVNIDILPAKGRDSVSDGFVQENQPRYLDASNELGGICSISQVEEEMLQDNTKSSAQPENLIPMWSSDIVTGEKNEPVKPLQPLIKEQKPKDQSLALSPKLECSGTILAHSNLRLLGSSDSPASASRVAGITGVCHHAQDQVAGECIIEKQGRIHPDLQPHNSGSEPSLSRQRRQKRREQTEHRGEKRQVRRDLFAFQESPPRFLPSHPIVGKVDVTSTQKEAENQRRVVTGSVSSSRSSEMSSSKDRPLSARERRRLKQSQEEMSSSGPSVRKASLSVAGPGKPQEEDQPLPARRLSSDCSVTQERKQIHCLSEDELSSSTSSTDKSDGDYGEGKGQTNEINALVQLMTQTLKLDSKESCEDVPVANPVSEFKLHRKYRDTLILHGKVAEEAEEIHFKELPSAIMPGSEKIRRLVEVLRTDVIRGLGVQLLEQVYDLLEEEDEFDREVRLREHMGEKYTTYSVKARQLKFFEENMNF

Legend:
Experiment in all cases: log2 fold change, soluble protein after heating vs DMSO (PISA); higher = thermal stabilisation; K562 lysate, 10 uM; active = over 0.2 and 3.5 SD of the protein, either way, in both replicates (recomputed)
alvocidib = compound: CN1CC[C@H](c2c(O)cc(O)c3c(=O)cc(-c4ccccc4Cl)oc23)[C@H](O)C1 [alvocidib]
Summary of the method: (§1)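 Dounce homogenisation of K562 pellets in PBS pH 7.4 with 1 mM MgCl2 produced a crude extract, used at 1 mg/mL protein. Exposure to 10 μM compound lasted 30 min, and aliquots were then heated for 3 min across 48°C-58°C, pooled and brought to 0.5% NP-40 at 4°C. The supernatant after 21,000xg for 90 min was quantified by TMTpro 16plex LC-MS/MS with channel sums equalised. Duplicate values are given as log-two fold change in thermal stability relative to solvent controls.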

[1] = compound: CNC(=O)C1=CC=CC=C1NC2=NC(=NC=C2Cl)NC3=C(C=C(C=C3)N4CCOCC4)OC
Summary of the method: as §1

encorafenib = compound: COC(=O)N[C@@H](C)CNc1nccc(-c2cn(C(C)C)nc2-c2cc(Cl)cc(NS(C)(=O)=O)c2F)n1 [encorafenib]
Summary of the method: as §1

[2] = compound: COC(=O)[C@H](CCSC)NC(=O)C1=C(C=C(C=C1)NC[C@H](CS)N)C2=CC=CC=C2
Summary of the method: as §1

alisertib = compound: COc1cc(Nc2ncc3c(n2)-c2ccc(Cl)cc2C(c2c(F)cccc2OC)=NC3)ccc1C(=O)O [alisertib]
Summary of the method: as §1

[3] = compound: COc1cc2nc(-c3cc(F)ccc3O)nc(N[C@@H]3CNC[C@H]3C(C)(C)O)c2cc1OC
Summary of the method: as §1

gefitinib = compound: COc1cc2ncnc(Nc3ccc(F)c(Cl)c3)c2cc1OCCCN1CCOCC1 [gefitinib]
Summary of the method: as §1

Tubastatin A = compound: CN1CCc2c(c3ccccc3n2Cc2ccc(C(=O)NO)cc2)C1 [Tubastatin A]
Summary of the method: as §1

defactinib = compound: CNC(=O)c1ccc(Nc2ncc(C(F)(F)F)c(NCc3nccnc3N(C)S(C)(=O)=O)n2)cc1 [defactinib]
Summary of the method: as §1

[4] = compound: CNc1nc(-c2ccc3c(N)n[nH]c3c2)cc(N2C[C@@H](C(=O)NC3CCCCC3)CC[C@H]2C)n1
Summary of the method: as §1

Measured: log2 fold change

NFRKB isoform 2 (UniProt Q6P4R8)
inactive: alvocidib -0.048 | [1] 0.003 | encorafenib -0.076 | [2] -0.095 | alisertib 0.003 | [3] -0.219 | gefitinib -0.143

NLRC3 isoform 2 (UniProt Q7RTR2)
inactive: Tubastatin A 0.028 | [1] 0.023 | defactinib -0.146 | [4] -0.126 | encorafenib 0.063 | [2] -0.007 | alisertib 0.107 | [3] -0.032 | gefitinib 0.164

NFATC4 isoform 2 (UniProt Q14934)
inactive: alvocidib -0.062 | defactinib -0.12 | [4] 0.023 | encorafenib 0.011 | [2] -0.032 | alisertib 0.048 | [3] 0.244 | gefitinib 0.132

NEK5 (UniProt Q6P3R8)
inactive: alvocidib 0.075 | Tubastatin A 0.071 | defactinib 0.026 | [4] -0.138 | encorafenib 0 | [2] -0.006 | alisertib 0.257 | [3] -0.05 | gefitinib 0.094

NDUFB1 (UniProt O75438)
inactive: alvocidib 0.249 | Tubastatin A -0.098 | [1] 0.025 | defactinib 0.115 | [4] 0.054 | alisertib -0.06 | gefitinib -0.14

NIPA1 (UniProt Q7RTP0)
inactive: alvocidib -0.122 | Tubastatin A -0.144 | [1] 0.023 | defactinib 0.293 | alisertib 0.103 | [3] 0.02 | gefitinib 0.048

NEU4 (UniProt C9JEA3)
inactive: alvocidib -0.022 | Tubastatin A 0.019 | [1] -0.043 | defactinib -0.034 | [4] 0.054 | alisertib 0.028 | gefitinib 0.038

NLRP1 (UniProt Q9C000)
inactive: Tubastatin A 0.218 | [1] 0 | [4] 0.05 | encorafenib 1.12 | [2] -0.038

Pulled one by one from above, three records:
NFATC4 isoform 2 (UniProt Q14934)
inactive: alvocidib -0.062 | defactinib -0.12 | [4] 0.023 | encorafenib 0.011 | [2] -0.032 | alisertib 0.048 | [3] 0.244 | gefitinib 0.132

NLRP1 (UniProt Q9C000)
inactive: Tubastatin A 0.218 | [1] 0 | [4] 0.05 | encorafenib 1.12 | [2] -0.038

NEU4 (UniProt C9JEA3)
inactive: alvocidib -0.022 | Tubastatin A 0.019 | [1] -0.043 | defactinib -0.034 | [4] 0.054 | alisertib 0.028 | gefitinib 0.038

More entries.

NEIL2 (UniProt Q969S2)
inactive: [1] 0.107 | alisertib 0.024 | gefitinib 0.04

NDUFAF6 (UniProt Q330K2)
inactive: alvocidib 0.021 | Tubastatin A -0.202 | [1] 0.065 | [4] -0.102 | encorafenib 0.035 | [2] 0.031 | alisertib -0.01 | [3] -0.174 | gefitinib -0.14

NDST1 (UniProt P52848)
inactive: Tubastatin A 0.073 | [1] -0.003 | defactinib 0.176 | [4] 0.008 | encorafenib 0.074 | [2] -0.033 | alisertib 0.028 | [3] -0.022 | gefitinib -0.051

NDUFAF5 (UniProt Q5TEU4)
inactive: alvocidib -0.004 | Tubastatin A 0.12 | [1] -0.068 | defactinib -0.047 | [4] 0.175 | encorafenib 0.18 | [2] -0.065 | [3] -0.033

NLRX1 (UniProt Q86UT6)
inactive: alvocidib -0.12 | [1] -0.143 | defactinib 0.125 | encorafenib 0.107 | [2] 0.065

NDRG2 (UniProt G3V2A6)
inactive: alisertib -0.145 | [3] -0.001 | gefitinib -0.188

NFIL3 (UniProt Q16649)
inactive: Tubastatin A -0.096 | encorafenib -0.302 | [2] 0.17 | alisertib 0.068 | [3] 0.676 | gefitinib 0.047

NET1 (UniProt Q7Z628)
inactive: Tubastatin A -0.104 | [1] 0.047 | defactinib -0.13 | alisertib -0.015 | gefitinib 0.082

NFKB1 isoform 2 (UniProt P19838)
inactive: Tubastatin A -0.086 | [1] -0.007 | defactinib -0.004 | [4] -0.011 | encorafenib 0.029 | [2] 0.009 | alisertib 0.011 | [3] 0.001 | gefitinib -0.051

NKAPD1 isoform 2 (UniProt Q6ZUT1)
inactive: [1] 0.021 | alisertib -0.051 | gefitinib -0.187

NEU3 isoform 2 (UniProt Q9UQ49)
inactive: Tubastatin A -0.043 | [1] 0.012 | defactinib 0.23 | [4] -0.04 | encorafenib 0.05 | [2] 0.147 | alisertib 0.051 | [3] 0.003 | gefitinib -0.04

NEB isoform 3 (UniProt P20929)
inactive: alvocidib -0.133 | Tubastatin A 0.123 | [1] 0.021 | defactinib -0.095 | [4] 0.154 | alisertib 0.009 | [3] -0.151 | gefitinib -0.034

NDFIP2 (UniProt Q9NV92)
inactive: alvocidib 0.069 | Tubastatin A -0.069 | alisertib -0.149 | gefitinib -0.201

NDRG1 (UniProt Q92597)
inactive: alvocidib -0.096 | Tubastatin A -0.067 | [1] -0.033 | defactinib 0.102 | [4] -0.037 | [3] -0.077

NFYC isoform 3 (UniProt Q13952)
inactive: [1] -0.145 | [4] -0.064

NDUFC1 (UniProt O43677)
inactive: Tubastatin A 0.088 | [1] -0.043 | [4] 0.103 | encorafenib 0.024 | [2] -0.03

NGDN (UniProt Q8NEJ9)
inactive: Tubastatin A -0.042 | [1] 0.125 | encorafenib 0.253 | [2] 0.149 | alisertib 0.157 | [3] 0.089 | gefitinib 0.067

NLK (UniProt Q9UBE8)
inactive: alvocidib -0.054 | [1] 0.067 | defactinib -0.178

NDFIP1 (UniProt Q9BT67)
inactive: alvocidib -0.084 | Tubastatin A -0.022 | [1] 0.045 | defactinib 0.07 | [4] 0.089 | alisertib -0.032 | [3] -0.116 | gefitinib -0.004

NEK8 (UniProt Q86SG6)
inactive: alvocidib -0.043 | Tubastatin A 0.036 | [1] 0.097 | defactinib 0.01 | alisertib -0.222 | gefitinib -0.048

NEPRO (UniProt Q6NW34)
inactive: alvocidib 0.005 | Tubastatin A -0.042 | [1] 0.054 | [4] 0.028 | encorafenib 0.145 | [2] 0.075 | alisertib -0.138 | [3] 0.031 | gefitinib -0.107

NFKBIA (UniProt P25963)
inactive: [1] 0.083 | defactinib -0.394 | [4] 0.017 | alisertib -0.085 | [3] 0.025 | gefitinib 0.228

NDRG2 isoform 6 (UniProt Q9UN36)
inactive: Tubastatin A 0.001 | [1] 0.043 | defactinib 0.201 | [4] -0.093 | encorafenib 0.138 | [2] -0.067 | [3] -0.187

NFIX (UniProt Q14938)
inactive: encorafenib 0.065 | [2] -0.272

NFE2L1 (UniProt Q14494)
inactive: alvocidib -0.014 | Tubastatin A 0.007 | [1] -0.106 | defactinib 0.025 | encorafenib 0.026 | [2] 0.096

NIPSNAP3B (UniProt Q9BS92)
inactive: alvocidib -0.055 | Tubastatin A -0.04 | [1] -0.012 | defactinib -0.035 | encorafenib 0 | [2] 0.061 | alisertib 0.064 | [3] 0.015 | gefitinib -0.208

NIN isoform 7 (UniProt Q8N4C6)
inactive: alvocidib 0.046 | Tubastatin A 0.016 | [1] -0.008 | [3] 0.193

NEK4 (UniProt P51957)
inactive: defactinib 0.035

NFIA isoform 4 (UniProt Q12857)
inactive: alvocidib -0.042 | Tubastatin A -0.049 | [1] 0.007 | defactinib 0.002 | [4] 0.09 | alisertib -0.01 | [3] -0.012 | gefitinib 0.103

NEURL4 (UniProt Q96JN8)
inactive: alvocidib 0.006 | [1] -0.026 | defactinib -0.091 | [4] -0.083 | encorafenib 0.009 | [2] 0.138 | [3] -0.055
